Data source: PubChem BioAssay AID1259308 (NCATS, 2017)

- Screen: 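Genes whose loss raises luciferase production in HEK293 cells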 (primary screen)
- Cell system: human HEK293 embryonic kidney cells stably expressing firefly luciferase (HEK-CMV-Luc2-Hygro)
- Reagents: single siRNA against human genes, 0.8 pmol siRNA per well
- Time to read-out: 72 h
- Measured: 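Reporter luminescence and viable-cell signal on separate replicate plates, given as percent of non-targeting control and median/MAD z-scores, plus per-cell luciferase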
- Direction: total luciferase, z-score and total luciferase, % of control: higher = more reporter protein produced
- Call rule: 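Active when the median/MAD z-score for overall luciferase is greater than 3; a gene was taken forward for validation with new siRNAs if at least two of its three siRNAs passed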
- Calls: active = raised luciferase; inactive = no rise
The whole screen tested about 59,000 reagents; below is an unselected part. About 1,510 of them (2.6%) count as active. 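Calls use total luciferase alone and ignore viability, so some active siRNAs may act by altering cell number.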 The numbers tell different reagents against one gene apart. Further read-outs or replicates are left out here.

| Gene | reagent no. | total luciferase, z-score | total luciferase, % of control | activity call |
| --- | --- | --- | --- | --- |
| RPL21P106 | 1 | 0.109 | 84.1 | inactive |
| RPL21P106 | 2 | 0.102 | 83.9 | inactive |
| RPL21P106 | 3 | -1.9 | 44.1 | inactive |
| RECK | 1 | 0.267 | 87.2 | inactive |
| RECK | 2 | -0.777 | 66.4 | inactive |
| RECK | 3 | 0.907 | 99.9 | inactive |
| UNC5A | 1 | 0.291 | 87.7 | inactive |
| UNC5A | 2 | 0.66 | 95 | inactive |
| UNC5A | 3 | -0.321 | 75.5 | inactive |
| SURF4 | 1 | 0.279 | 87.4 | inactive |
| SURF4 | 2 | -0.361 | 74.7 | inactive |
| SURF4 | 3 | -1.19 | 58.2 | inactive |
| LINC02610 | 1 | -1.31 | 55.9 | inactive |
| LINC02610 | 2 | 2.13 | 124 | inactive |
| LINC02610 | 3 | 0.108 | 84 | inactive |
| GZMA | 1 | 3.21 | 146 | active |
| GZMA | 2 | -2.3 | 36.1 | inactive |
| GZMA | 3 | 0.153 | 84.9 | inactive |
| VWDE | 1 | -0.592 | 70.1 | inactive |
| VWDE | 2 | 0.263 | 87.1 | inactive |
| VWDE | 3 | 1.12 | 104 | inactive |
| MSMO1 | 1 | -1.24 | 57.1 | inactive |
| MSMO1 | 2 | 0.745 | 96.7 | inactive |
| MSMO1 | 3 | -0.853 | 64.9 | inactive |
| NFATC2IP | 1 | -3.06 | 21.1 | inactive |
| NFATC2IP | 2 | 0.786 | 97.5 | inactive |
| NFATC2IP | 3 | 1.86 | 119 | inactive |
| WDR45 | 1 | 1.84 | 118 | inactive |
| WDR45 | 2 | 1.35 | 109 | inactive |
| WDR45 | 3 | 0.248 | 86.8 | inactive |
| OR1L1 | 1 | 3.83 | 158 | active |
| OR1L1 | 2 | -0.299 | 75.9 | inactive |
| OR1L1 | 3 | -0.754 | 66.9 | inactive |

Continued, starting with the last 3 of the part before.
| Gene | reagent no. | total luciferase, z-score | total luciferase, % of control | activity call |
| --- | --- | --- | --- | --- |
| OR1L1 | 1 | 3.83 | 158 | active |
| OR1L1 | 2 | -0.299 | 75.9 | inactive |
| OR1L1 | 3 | -0.754 | 66.9 | inactive |
| IRAK1BP1 | 1 | 0.345 | 88.8 | inactive |
| IRAK1BP1 | 2 | -1.07 | 60.6 | inactive |
| IRAK1BP1 | 3 | 0.418 | 90.2 | inactive |
| BEX4 | 1 | -1.68 | 48.4 | inactive |
| BEX4 | 2 | 0.322 | 88.3 | inactive |
| BEX4 | 3 | 0.028 | 82.4 | inactive |
| IRF4 | 1 | -0.395 | 74 | inactive |
| IRF4 | 2 | 0.543 | 92.7 | inactive |
| IRF4 | 3 | -0.231 | 77.3 | inactive |
| CD302 | 1 | 1.14 | 105 | inactive |
| CD302 | 2 | 0.117 | 84.2 | inactive |
| CD302 | 3 | 0.105 | 84 | inactive |
| NAA10 | 1 | -0.531 | 71.3 | inactive |
| NAA10 | 2 | -1.05 | 61 | inactive |
| NAA10 | 3 | -1.78 | 46.4 | inactive |
| SMYD5 | 1 | 0.492 | 91.7 | inactive |
| SMYD5 | 2 | 1.5 | 112 | inactive |
| SMYD5 | 3 | 0.407 | 90 | inactive |
| CCDC190 | 1 | -0.943 | 63.1 | inactive |
| CCDC190 | 2 | 0.311 | 88.1 | inactive |
| CCDC190 | 3 | 0.0686 | 83.3 | inactive |
| NELFB | 1 | 3.35 | 149 | active |
| NELFB | 2 | -0.778 | 66.4 | inactive |
| NELFB | 3 | 2.64 | 134 | inactive |
